Laboratory results: PubChem BioAssay AID743454 (Peter MacCallum Cancer Centre, 2014)
Here is an unselected part of about 18,000 reagents. In the full data, 450 (2.5%) are marked active. 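Single biological run; no consistent viability z cut-off exists, so the class columns, not z-scores, define the calls.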 Entries without a mark were called inactive. No sequences are given here.

Aim: 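Search for knock-downs that restore vorinostat killing in resistant colon cancer cells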 (primary screen)
Cells: human HCT116-VR colon cancer cells, selected for vorinostat resistance
Knock-down reagent: siRNA pool against human genes, 40 nM siRNA pool
Duration: vorinostat for 24 h, read-out about 72 h after transfection
Conditions: vorinostat at 2.5 µM final
Read-out: 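Cell viability by CellTiter-Fluor and caspase 3/7 activity by luminescence, each scaled to mock wells per plate, duplicates averaged, then robust z-scored over all plates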
Scale: viability robust z-score: higher = more viable cells than screen typical; caspase robust z-score: higher = more caspase 3/7 activity than screen typical
Hit rule: 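a knock-down is a hit when classed RV1 or RV2 for lowered viability, or CA1 or CA2 for caspase activation; those lethal without drug were dropped; hits were retested singly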

With KIAA0408, what does the deposit list?
viability hit class: no change; caspase hit class: no change; viability robust z-score: -0.01; caspase robust z-score: -0.16

What is on record for EHMT2?
viability hit class: no change; caspase hit class: no change; viability robust z-score: 0.9; caspase robust z-score: 0.18

For CSNK1D, how do the results read?
viability hit class: no change; caspase hit class: no change; viability robust z-score: 0.78; caspase robust z-score: -0.52

How did the screen score FAM53C?
viability hit class: no change; caspase hit class: no change; viability robust z-score: -0.66; caspase robust z-score: -0.68

What did the screen give for NCBP1?
viability hit class: no change; caspase hit class: no change; viability robust z-score: -1.06; caspase robust z-score: 0.32

How did the screen score LRRC55?
viability hit class: no change; caspase hit class: no change; viability robust z-score: -0.52; caspase robust z-score: 2.64

With FLRT3, what does the deposit list?
viability hit class: no change; caspase hit class: no change; viability robust z-score: 0.77; caspase robust z-score: 0.04

For AKAP19, what was measured?
viability hit class: no change; caspase hit class: no change; viability robust z-score: 0.58; caspase robust z-score: 0.24

How did the screen score DDX56?
viability hit class: no change; caspase hit class: no change; viability robust z-score: -2.49; caspase robust z-score: 1.55

What is on record for CD38?
viability hit class: no change; caspase hit class: no change; viability robust z-score: 0; caspase robust z-score: 0.32

What is on record for GDPD5?
viability hit class: no change; caspase hit class: no change; viability robust z-score: -0.74; caspase robust z-score: -0.7

With HRNR, what does the deposit list?
viability hit class: no change; caspase hit class: no change; viability robust z-score: -1.11; caspase robust z-score: 0.92

Single entries from the entries so far.
For “caspase robust z-score”, NCBP1 has 0.32
Entry of FAM53C under “caspase robust z-score”: -0.68
